Measurements reported in patent US8288372B2, “Method for treating headache with loxapine” (Alexza Pharmaceuticals, Inc., priority 2002, dated 2012).

Tested on: Male mice
Test: Mouse writhing test (acetic acid 0.5% i.p.)
Conditions: 8 mg/kg i.p., each experiment
Experimental: Male mice weighing 23-28 g were used in this test. Mice were injected with acetic acid (0.5% i.p.). This treatment induces a recognizable writhing response in control animals. The number of writhes is counted for 10 minutes beginning 5 minutes after injection of acetic acid. Ten mice were studied per group. The test was performed blind. Loxapine and amoxapine (dispersed in 0.2% hydroxypropylmethylcellulose, then dissolved in saline) were evaluated at five doses, administered i.p. 30 minutes before acetic acid, and compared with a vehicle control (0.2% hydroxypropylmethylcellulose in saline) group. Dosage rates for loxapine were 0.125, 0.25, 0.5, 1 and 2 mg/kg. Dosage rates for amoxapine were 1, 2, 4, 8 and 16 mg/kg. […] The data were analyzed by comparing the treated groups with the vehicle control using Mann Whitney U tests.

SMILES: CN1CC[C@]23c4c5ccc(O)c4O[C@H]2[C@@H](O)C=C[C@H]3[C@H]1C5 [Morphine]
- Effect on writhing induced by acetic acid: markedly antagonized writhing
